Source: patent US12729225B2, “Non-canonical SWI/SNF complex and uses thereof” (Dana-Farber Cancer Institute, Inc., priority 2018, dated 2026)

Tested on: mSWI/SNF complexes
Assay: mSWI/SNF complex purification with HA-tagged baits and mass spectrometry (peptide counts)
Parameters: species or system human
Conditions: 293_HA-BRD7 bait purification, mass spectrometry; for Total: total peptide count per identified protein; for Unique: unique peptide count per identified protein

| Molecule | Total | Unique |
| --- | --- | --- |
| UTP18 (protein, UniProt Q9Y5J1 1-556, looked up) U3 small nucleolar …: MPPERRRRMKLDRRTGAKPKRKPGMRPDWKAGAGPGGPPQKPAPSSQRKPPARPSAAAAAIAVAAAEEERRLRQRNRLRLEEDKPAVERCLEELVFGDVENDEDALLRRLRGPRVQEHEDSGDSEVENEAKGNFPPQKKPVWVDEEDEDEEMVDMMNNRFRKDMMKNASESKLSKDNLKKRLKEEFQHAMGGVPAWAETTKRKTSSDDESEEDEDDLLQRTGNFISTSTSLPRGILKMKNCQHANAERPTVARISSVQFHPGAQIVMVAGLDNAVSLFQVDGKTNPKIQSIYLERFPIFKACFSANGEEVLATSTHSKVLYVYDMLAGKLIPVHQVRGLKEKIVRSFEVSPDGSFLLINGIAGYLHLLAMKTKELIGSMKINGRVAASTFSSDSKKVYASSGDGEVYVWDVNSRKCLNRFVDEGSLYGLSIATSRNGQYVACGSNCGVVNIYNQDSCLQETNPKPIKAIMNLVTGVTSLTFNPTTEILAIASEKMKEAVRLVHLPSCTVFSNFPVIKNKNISHVHTMDFSPRSGYFALGNEKGKALMYRLHHYSDF | 1 | 1 |
| DNAJC11 (protein, UniProt Q9NVH1 2-559, looked up) DnaJ homolog subfamily C …: ATALSEEELDNEDYYSLLNVRREASSEELKAAYRRLCMLYHPDKHRDPELKSQAERLFNLVHQAYEVLSDPQTRAIYDIYGKRGLEMEGWEVVERRRTPAEIREEFERLQREREERRLQQRTNPKGTISVGVDATDLFDRYDEEYEDVSGSSFPQIEINKMHISQSIEAPLTATDTAILSGSLSTQNGNGGGSINFALRRVTSAKGWGELEFGAGDLQGPLFGLKLFRNLTPRCFVTTNCALQFSSRGIRPGLTTVLARNLDKNTVGYLQWRWGIQSAMNTSIVRDTKTSHFTVALQLGIPHSFALISYQHKFQDDDQTRVKGSLKAGFFGTVVEYGAERKISRHSVLGAAVSVGVPQGVSLKVKLNRASQTYFFPIHLTDQLLPSAMFYATVGPLVVYFAMHRLIIKPYLRAQKEKELEKQRESAATDVLQKKQEAESAVRLMQESVRRIIEAEESRMGLIIVNAWYGKFVNDKSRKSEKVKVIDVTVPLQCLVKDSKLILTEASKAGLPGFYDPCVGEEKNLKVLYQFRGVLHQVMVLDSEALRIPKQSHRIDTDG | 1 | 1 |
| DDX24 (protein, UniProt Q9GZR7 1-859, looked up) ATP-dependent RNA helicase …: MKLKDTKSRPKQSSCGKFQTKGIKVVGKWKEVKIDPNMFADGQMDDLVCFEELTDYQLVSPAKNPSSLFSKEAPKRKAQAVSEEEEEEEGKSSSPKKKIKLKKSKNVATEGTSTQKEFEVKDPELEAQGDDMVCDDPEAGEMTSENLVQTAPKKKKNKGKKGLEPSQSTAAKVPKKAKTWIPEVHDQKADVSAWKDLFVPRPVLRALSFLGFSAPTPIQALTLAPAIRDKLDILGAAETGSGKTLAFAIPMIHAVLQWQKRNAAPPPSNTEAPPGETRTEAGAETRSPGKAEAESDALPDDTVIESEALPSDIAAEARAKTGGTVSDQALLFGDDDAGEGPSSLIREKPVPKQNENEEENLDKEQTGNLKQELDDKSATCKAYPKRPLLGLVLTPTRELAVQVKQHIDAVARFTGIKTAILVGGMSTQKQQRMLNRRPEIVVATPGRLWELIKEKHYHLRNLRQLRCLVVDEADRMVEKGHFAELSQLLEMLNDSQYNPKRQTLVFSATLTLVHQAPARILHKKHTKKMDKTAKLDLLMQKIGMRGKPKVIDLTRNEATVETLTETKIHCETDEKDFYLYYFLMQYPGRSLVFANSISCIKRLSGLLKVLDIMPLTLHACMHQKQRLRNLEQFARLEDCVLLATDVAARGLDIPKVQHVIHYQVPRTSEIYVHRSGRTARATNEGLSLMLIGPEDVINFKKIYKTLKKDEDIPLFPVQTKYMDVVKERIRLARQIEKSEYRNFQACLHNSWIEQAAAALEIELEEDMYKGGKADQQEERRRQKQMKVLKKELRHLLSQPLFTESQKTKYPTQSGKPPLLVSAPSKSESALSCLSKQKKKKTKKPKEPQPEQPQPSTSAN | 1 | 1 |
| EEF1D (protein, UniProt P29692 2-281, looked up) Elongation factor 1-delta: ATNFLAHEKIWFDKFKYDDAERRFYEQMNGPVAGASRQENGASVILRDIARARENIQKSLAGSSGPGASSGTSGDHGELVVRIASLEVENQSLRGVVQELQQAISKLEARLNVLEKSSPGHRATAPQTQHVSPMRQVEPPAKKPATPAEDDEDDDIDLFGSDNEEEDKEAAQLREERLRQYAEKKAKKPALVAKSSILLDVKPWDDETDMAQLEACVRSIQLDGLVWGASKLVPVGYGIRKLQIQCVVEDDKVGTDLLEEEITKFEEHVQSVDIAAFNKI | 1 | 1 |
| ISG20L2 (protein, UniProt Q9H9L3 1-353, looked up) Interferon-stimulated 20 kDa …: MSTLLLNLDFGEPPPKKALEGNAKHRNFVKKRRLLERRGFLSKKNQPPSKAPKLHSEPSKKGETPTVDGTWKTPSFPKKKTAASSNGSGQPLDKKAAVSWLTPAPSKKADSVAAKVDLLGEFQSALPKINSHPTRSQKKSSQKKSSKKNHPQKNAPQNSTQAHSENKCSGASQKLPRKMVAIDCEMVGTGPKGHVSSLARCSIVNYNGDVLYDEYILPPCHIVDYRTRWSGIRKQHMVNATPFKIARGQILKILTGKIVVGHAIHNDFKALQYFHPKSLTRDTSHIPPLNRKADCPENATMSLKHLTKKLLNRDIQVGKSGHSSVEDAQATMELYKLVEVEWEEHLARNPPTD | 1 | 1 |
| DNAAF2 (protein, UniProt Q9NVR5 1-837, looked up) Protein kintoun: MAKAAASSSLEDLDLSGEEVQRLTSAFQDPEFRRMFSQYAEELTDPENRRRYEAEITALERERGVEVRFVHPEPGHVLRTSLDGARRCFVNVCSNALVGAPSSRPGSGGDRGAAPGSHWSLPYSLAPGREYAGRSSSRYMVYDVVFHPDALALARRHEGFRQMLDATALEAVEKQFGVKLDRRNAKTLKAKYKGTPEAAVLRTPLPGVIPARPDGEPKGPLPDFPYPYQYPAAPGPRAPSPPEAALQPAPTEPRYSVVQRHHVDLQDYRCSRDSAPSPVPHELVITIELPLLRSAEQAALEVTRKLLCLDSRKPDYRLRLSLPYPVDDGRGKAQFNKARRQLVVTLPVVLPAARREPAVAVAAAAPEESADRSGTDGQACASAREGEAGPARSRAEDGGHDTCVAGAAGSGVTTLGDPEVAPPPAAAGEERVPKPGEQDLSRHAGSPPGSVEEPSPGGENSPGGGGSPCLSSRSLAWGSSAGRESARGDSSVETREESEGTGGQRSACAMGGPGTKSGEPLCPPLLCNQDKETLTLLIQVPRIQPQSLQGDLNPLWYKLRFSAQDLVYSFFLQFAPENKLSTTEPVISISSNNAVIELAKSPESHGHWREWYYGVNNDSLEERLFVNEENVNEFLEEVLSSPFKQSMSLTPPLIEVLQVTDNKIQINAKLQECSNSDQLQGKEERVNEESHLTEKEYIEHCNTPTTDSDSSIAVKALQIDSFGLVTCFQQESLDVSQMILGKSQQPESKMQSEFIKEKSATCSNEEKDNLNESVITEEKETDGDHLSSLLNKTTVHNIPGFDSIKETNMQDGSVQVIKDHVTNCAFSFQNSLLYDLD | 1 | 1 |
| UQCRC1 (protein, UniProt P31930 35-480, looked up) Cytochrome b-c1 complex …: TATFAQALQFVPETQVSLLDNGLRVASEQSSQPTCTVGVWIDVGSRFETEKNNGAGYFLEHLAFKGTKNRPGSALEKEVESMGAHLNAYSTREHTAYYIKALSKDLPKAVELLGDIVQNCSLEDSQIEKERDVILREMQENDASMRDVVFNYLHATAFQGTPLAQAVEGPSENVRKLSRADLTEYLSTHYKAPRMVLAAAGGVEHQQLLDLAQKHLGGIPWTYAEDAVPTLTPCRFTGSEIRHRDDALPFAHVAIAVEGPGWASPDNVALQVANAIIGHYDCTYGGGVHLSSPLASGAVANKLCQSFQTFSICYAETGLLGAHFVCDRMKIDDMMFVLQGQWMRLCTSATESEVARGKNILRNALVSHLDGTTPVCEDIGRSLLTYGRRIPLAEWESRIAEVDASVVREICSKYIYDQCPAVAGYGPIEQLPDYNRIRSGMFWLRF | 1 | 1 |
| PRDX2 (protein, UniProt P32119 2-198, looked up) Peroxiredoxin-2: ASGNARIGKPAPDFKATAVVDGAFKEVKLSDYKGKYVVLFFYPLDFTFVCPTEIIAFSNRAEDFRKLGCEVLGVSVDSQFTHLAWINTPRKEGGLGPLNIPLLADVTRRLSEDYGVLKTDEGIAYRGLFIIDGKGVLRQITVNDLPVGRSVDEALRLVQAFQYTDEHGEVCPAGWKPGSDTIKPNVDDSKEYFSKHN | 1 | 1 |
| TMED9 (protein, UniProt Q9BVK6 38-235, looked up) Transmembrane emp24 …: LYFHIGETEKKCFIEEIPDETMVIGNYRTQLYDKQREEYQPATPGLGMFVEVKDPEDKVILARQYGSEGRFTFTSHTPGEHQICLHSNSTKFSLFAGGMLRVHLDIQVGEHANDYAEIAAKDKLSELQLRVRQLVEQVEQIQKEQNYQRWREERFRQTSESTNQRVLWWSILQTLILVAIGVWQMRHLKSFFEAKKLV | 1 | 1 |
| PDHA2 (protein, UniProt P29803 28-388, looked up) Pyruvate dehydrogenase E1 …: SSNDATFEIKKCDLYLLEEGPPVTTVLTRAEGLKYYRMMLTVRRMELKADQLYKQKFIRGFCHLCDGQEACCVGLEAGINPSDHVITSYRAHGVCYTRGLSVRSILAELTGRRGGCAKGKGGSMHMYTKNFYGGNGIVGAQGPLGAGIALACKYKGNDEICLTLYGDGAANQGQIAEAFNMAALWKLPCVFICENNLYGMGTSTERAAASPDYYKRGNFIPGLKVDGMDVLCVREATKFAANYCRSGKGPILMELQTYRYHGHSMSDPGVSYRTREEIQEVRSKRDPIIILQDRMVNSKLATVEELKEIGAEVRKEIDDAAQFATTDPEPHLEELGHHIYSSDSSFEVRGANPWIKFKSVS | 1 | 1 |
| ASPH (protein, UniProt Q12797 1-758, looked up) Aspartyl/asparaginyl …: MAQRKNAKSSGNSSSSGSGSGSTSAGSSSPGARRETKHGGHKNGRKGGLSGTSFFTWFMVIALLGVWTSVAVVWFDLVDYEEVLGKLGIYDADGDGDFDVDDAKVLLGLKERSTSEPAVPPEEAEPHTEPEEQVPVEAEPQNIEDEAKEQIQSLLHEMVHAEHVEGEDLQQEDGPTGEPQQEDDEFLMATDVDDRFETLEPEVSHEETEHSYHVEETVSQDCNQDMEEMMSEQENPDSSEPVVEDERLHHDTDDVTYQVYEEQAVYEPLENEGIEITEVTAPPEDNPVEDSQVIVEEVSIFPVEEQQEVPPETNRKTDDPEQKAKVKKKKPKLLNKFDKTIKAELDAAEKLRKRGKIEEAVNAFKELVRKYPQSPRARYGKAQCEDDLAEKRRSNEVLRGAIETYQEVASLPDVPADLLKLSLKRRSDRQQFLGHMRGSLLTLQRLVQLFPNDTSLKNDLGVGYLLIGDNDNAKKVYEEVLSVTPNDGFAKVHYGFILKAQNKIAESIPYLKEGIESGDPGTDDGRFYFHLGDAMQRVGNKEAYKWYELGHKRGHFASVWQRSLYNVNGLKAQPWWTPKETGYTELVKSLERNWKLIRDEGLAVMDKAKGLFLPEDENLREKGDWSQFTLWQQGRRNENACKGAPKTCTLLEKFPETTGCRRGQIKYSIMHPGTHVWPHTGPTNCRLRMHLGLVIPKEGCKIRCANETKTWEEGKVLIFDDSFEHEVWQDASSFRLIFIVDVWHPELTPQQRRSLPAI | 1 | 1 |
